From PubChem BioAssay record AID1159506 (NCATS, 2015).

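Luminescence from an EWS-FLI1 target-promoter (NR0B1) reporter, set against a CMV-promoter reporter, two days after silencing single genes in TC32 Ewing sarcoma cells. Each siRNA was applied at 20 nM. A z-score of the log NR0B1-over-CMV signal, less the median of siRNAs with the same seed; more negative means a stronger specific loss of the NR0B1 reporter.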

The strongest results of the screen are mostly left out here. Sequences are the guide (antisense) strand, without overhang.

{"sirna": "UUUGGGUUGUCUUUAAGUG", "gene": "STARD4", "seed-corrected z-score": "1.182"}
{"sirna": "UUUCCGGUCAAGUAUGCGC", "gene": "EXOC3", "seed-corrected z-score": "0.441"}
{"sirna": "UGCGCUCUGGCUUUGAAGG", "gene": "HMGN2P16", "seed-corrected z-score": "-0.1297"}
{"sirna": "UUACCGGCAAGUAUCGGCC", "gene": "FCGBP", "seed-corrected z-score": "0.6549"}
{"sirna": "UCCUUGUUGACGUAGUCCC", "gene": "MAN2A2", "seed-corrected z-score": "-0.07298"}
{"sirna": "AUACUGAUAUCCAAUGGGC", "gene": "STRADB", "seed-corrected z-score": "-0.1578"}
{"sirna": "UGCAGUUCCAUCCUCCUCU", "gene": "CIDEB", "seed-corrected z-score": "0.6836"}
{"sirna": "UUUAGCACAGGAAUCAGUC", "gene": "PACRGL", "seed-corrected z-score": "0.7065"}
{"sirna": "UCUCAAUCCUCCGUUUUGC", "gene": "EIF5B", "seed-corrected z-score": "-0.1567"}
{"sirna": "UCUCUUCUCUCGCUGGUGC", "gene": "PLA2G3", "seed-corrected z-score": "0.563"}
{"sirna": "UGUUGGUUAACAAGGACUG", "gene": "ZNF514", "seed-corrected z-score": "-0.4519"}
{"sirna": "UAGUUGGUACUCUGUAUCC", "gene": "TBCK", "seed-corrected z-score": "-0.1749"}
{"sirna": "UACAGAUCUGUUAUCAGCC", "gene": "SMG7", "seed-corrected z-score": "1.189"}
{"sirna": "UUCCAUUGUACCAACGCGC", "gene": "GOT1", "seed-corrected z-score": "-1.535"}
{"sirna": "UCGUUGUUCACAUGUAGGG", "gene": "PRPF8", "seed-corrected z-score": "-0.9946"}
{"sirna": "UGUCUAACCAGUCAUUGAC", "gene": "CCDC191", "seed-corrected z-score": "0.5894"}
{"sirna": "UGAGAUGACCUGUAGCUGC", "gene": "DGAT2", "seed-corrected z-score": "0.004964"}
{"sirna": "UACCAGAGACGAGCGAUCC", "gene": "KLK4", "seed-corrected z-score": "-0.2157"}
{"sirna": "AAUAUGAUCAACAACUAGC", "gene": "DSEL", "seed-corrected z-score": "0.1782"}
{"sirna": "UAACUUAGAAGUCGUUUUC", "gene": "TMTC3", "seed-corrected z-score": "-0.1151"}
{"sirna": "UGUAGUGGUGAGAUCAUAG", "gene": "HCG9", "seed-corrected z-score": "-0.05406"}
{"sirna": "UUAGGAAACAGGUCAAACU", "gene": "DMRTA2", "seed-corrected z-score": "0.6007"}
{"sirna": "UGGUUCAUGAGUGAGGUAC", "gene": "CCDC88A", "seed-corrected z-score": "0.06868"}
{"sirna": "UGCUGUAGCAACAUGAGCU", "gene": "SLC30A8", "seed-corrected z-score": "0.9173"}
{"sirna": "UGGCUGAUCCAUGCAAUGG", "gene": "DOHH", "seed-corrected z-score": "-0.5531"}
{"sirna": "UCAAAGUAGAGUCAACUUC", "gene": "SDHB", "seed-corrected z-score": "1.441"}
{"sirna": "UUUUUGCACUGGUAUUUCU", "gene": "SNAI2", "seed-corrected z-score": "-0.04497"}
{"sirna": "UGCCUGAUUAGAAAAAGCC", "gene": "MSC", "seed-corrected z-score": "-0.1221"}
{"sirna": "UUGUGGUCCUGGAUAUUGU", "gene": "DAO", "seed-corrected z-score": "0.2929"}
{"sirna": "AAUGAUGUAGGAGCUGACC", "gene": "OR4K5", "seed-corrected z-score": "-0.8541"}
{"sirna": "UGCGAUGUAACCUUUUGGG", "gene": "NMNAT3", "seed-corrected z-score": "-0.2244"}
{"sirna": "AUGGAUCUCACUAUUAUCC", "gene": "MMRN1", "seed-corrected z-score": "0.01617"}

The last 4 entries again:

siRNA,gene,seed-corrected z-score
UUGUGGUCCUGGAUAUUGU,DAO,0.2929
AAUGAUGUAGGAGCUGACC,OR4K5,-0.8541
UGCGAUGUAACCUUUUGGG,NMNAT3,-0.2244
AUGGAUCUCACUAUUAUCC,MMRN1,0.01617